Measurements published in PubChem BioAssay AID493014 (National Center for Advancing Translational Sciences (NCATS), 2011).
Hit rate of the full screen: of about 340,000 compounds, about 170 (0.05%) were called active. Inconclusive means that the source gave no clear call. Such entries were picked first, then a sample of the others. Calls come from the whole dose curve; as a rule, active = well fitted inhibition curve with a large enough effect in the signal ratio, with a control signal flat (not every such curve was filed as active); inconclusive = small, poorly fitted or top-dose-only effect, or effect the other way, or a change in a side signal; inactive = flat fitted curve, though single readings scatter; the % refers to the signal ratio. Where the call is inconclusive, the potency comes from a doubtful curve fit.

assay: qHTS Assay to Find Inhibitors of Chronic Active B-Cell Receptor Signaling; conditions: ABC-DLBCL IkBa-CBG/CBR reporter, luminescence ratio (green luciferase fused to IkBa over red control in TMD8 lymphoma cells), 4 h; activity change, negative = inhibition: at 46.1 µM (top of the series);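 for activity change, negative = inhibition: plate controls were basal doxycycline-induced cells for no effect and cells given 10 µM MG132 for full effect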
Procedure, shortened: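 Concentration-response series (up to 46 uM) were applied to TMD8 dual-reporter cells for 4 h at 37C with doxycycline. Green/red ratio, after filter-overlap correction, defined %Activity; red signal alone was normalised to basal cells and zero luminescence.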
Potency is the fitted concentration of half-maximal effect.

| Compound | activity change, negative = inhibition | Potency |
| --- | --- | --- |
| CCOC(=O)N1CCN(C(=O)/C=C/c2ccc([N+](=O)[O-])cc2)CC1 | inactive: -2.02% | – |
| Cc1ccc(NC(=O)c2ccc(=O)[nH]n2)cc1C | – | inconclusive: 35.5 µM [falling, partial curve, poor fit] |
| Cc1nc(CCNC(=O)COc2ccccc2)cs1 | – | inconclusive: 23.1 µM [falling, single point] |
| Cc1ccc2nc(NC(=O)c3ccccc3F)sc2c1 | – | inconclusive: 5.62 µM [rising, single point] |
| COc1ccccc1C(=O)OCC(=O)c1cccc([N+](=O)[O-])c1 | inconclusive: 9.34% | – |
| O=C(Nc1ccccc1)N1CCN(c2ccccn2)CC1 | – | inconclusive: 12.6 µM [falling, partial curve] |
| CC(NC(=O)C1CCC(C(C)(C)C)CC1)C(c1ccccc1)N1CCOCC1 (stereo not given) | inactive: -0.766% | – |
| Cn1c(SCC(=O)c2ccccc2)nnc1-c1cccnc1 | inconclusive: -1.73% | – |
| COc1ccc(CCNC(=O)C2CCN(S(=O)(=O)N3CCC(C)CC3)CC2)cc1OC | inconclusive: -1.23% | – |
| O=C(CSc1ccc(Cl)cc1)N1CCC(c2nc3ccccc3s2)CC1 | inconclusive: -8.72% | – |
| Cc1ccc(NC(=O)C2CCCN2S(=O)(=O)c2cccc3cccnc23)cc1F (stereo not given) | inconclusive: -17.7% | – |
| CN(Cc1ccccc1)C(=O)CCS(=O)(=O)c1ccc2c(c1)n(C)c(=O)c(=O)n2C | inconclusive: -8.36% | – |
| COc1cccc(NC(=O)CN(C)C(=O)c2cccc(S(=O)(=O)N3CCN(c4ccccc4)CC3)c2)c1 | inconclusive: -7.16% | – |
| COC1=C(N2CCOCC2)C(=O)c2ccccc2C1=O | inactive: 0.0293% | – |
| C/C(CC(=O)Nc1ccc2c(c1)OCO2)=N\NC(=O)c1ccc(N)cc1 | – | inconclusive: 35.5 µM [falling, partial curve] |
| CO/N=C\C(=N\Nc1ccc(OC)cc1)C(=O)c1ccccc1 | inconclusive: 7.78% | – |
| CCOc1cc(/C=C2\C(=N)N3N=C(S(=O)(=O)CC)SC3=NC2=O)ccc1OC(=O)c1ccco1 | inconclusive: 7.1% | – |
| O=C(c1nc2ncccn2n1)N1CCN(c2ccc(F)cc2)CC1 | inconclusive: 5.18% | – |
| COc1ccc(NC(=O)CN2CCc3ccccc3C2)c(OC)c1 | inactive: -2.71% | – |
| O=c1c2ccccc2nc(N/N=C/c2ccc(O)cc2)n1O | – | inconclusive: 23.1 µM [falling, partial curve] |
| COc1cccc(N(CC(=O)NCCSCc2ccc(Cl)cc2)S(C)(=O)=O)c1 | inconclusive: -6.29% | – |
| Cc1ccc(C)c(/C=N/Nc2ccccn2)c1 | inconclusive: 4.61% | – |
| CCC1Nc2ncnc(N3CCOCC3)c2N(Cc2ccc(OC)cc2)C1=O (stereo not given) | inactive: -1.5% | – |
| CCNC(=S)N=Nc1c(O)[nH]c2ccc(C(C)C)cc12 | inconclusive: -0.259% | – |
| C/C(=N\Nc1ncc(Cl)cc1Cl)c1ccc(S(=O)(=O)NCc2ccco2)cc1 | – | inconclusive: 23.1 µM [falling, single point] |
| COc1cccc(C(=O)NCCS(=O)(=O)NC(C)CCc2ccccc2)c1 (stereo not given) | – | inconclusive: 29.1 µM [falling, single point] |
| CCn1c(Sc2nc(C)nc3scc(-c4cccs4)c23)n[nH]c1=O | – | inconclusive: 12.6 µM [falling, partial curve, poor fit] |

Full records from above:
`Cc1ccc(C)c(/C=N/Nc2ccccn2)c1` is entered as activity change, negative = inhibition: inconclusive: 4.61%
`O=C(Nc1ccccc1)N1CCN(c2ccccn2)CC1` is entered as Potency: inconclusive: 12.6 µM [falling, partial curve]

Following part.

| Compound | activity change, negative = inhibition | Potency |
| --- | --- | --- |
| CCN(CC)CCCNC(=S)N1CCN(c2nc(-c3ccc(F)cc3)cs2)CC1 | inconclusive: -18.3% | – |
| COc1cc(/C=C/c2cc(C(=O)O)c3ccccc3n2)cc(OC)c1O | – | inconclusive: 7.08 µM [falling, partial curve] |
| O=C(NCCc1ccc(F)cc1)C(=O)NCC(c1ccco1)S(=O)(=O)c1cccs1 (stereo not given) | inactive: -15.2% | – |
| COc1cc(N(C)C)c([N+](=O)[O-])cc1C(=O)N1CCN(Cc2ccccc2)CC1 | inconclusive: -15.7% | – |
| CCOc1ccccc1OCC(=O)Nc1cccc(S(=O)(=O)N2CCCCCC2)c1 | inconclusive: -9.6% | – |
| CS(=O)(=O)c1ccc(NCCc2ccc(S(N)(=O)=O)cc2)c([N+](=O)[O-])c1 | inconclusive: -9.5% | – |
| COc1ccccc1NC(C)=[N+](C)CCNS(=O)(=O)c1ccc(Cl)cc1 | – | inconclusive: 28.2 µM [falling, single point] |
| CCOC(=O)C1CCCN(C(=O)c2ccc(C)cc2O)C1 (stereo not given) | inconclusive: 11.7% | – |
| CC(C)c1c(C(=O)N/N=C/c2ccccc2OCc2c(F)cccc2Cl)nnn1-c1nonc1N | inactive: 1.85% | – |
| CCC(C)OC(=O)C(C)Oc1ccc(-c2ccccc2)cc1 (stereo not given) | – | inconclusive: 2.91 µM [rising, partial curve, poor fit] |
| CC(=O)c1ccc(NC(=O)[C@@H]2CCCN2C(=O)OC(C)(C)C)cc1 | inconclusive: 1.98% | – |
| Cn1nc(-c2ccc(Cl)cc2)c2cc(C(=O)NCc3ccco3)sc21 | inconclusive: -6.12% | – |
| COc1ccccc1-c1cc(C(=O)Nc2cc(C)nn2-c2ccccc2)no1 | – | inconclusive: 5.8 µM [falling, partial curve] |
| CC(=O)Oc1ccc2nc(-c3cccs3)oc(=O)c2c1 | – | inconclusive: 5.62 µM [rising, single point] |
| CCOCCn1ccc2c(OCC(=O)Nc3ccccc3F)cccc2c1=O | – | inconclusive: 25.9 µM [rising, single point] |
| CCOC(=O)C1=C(c2ccccc2)OC(N)=C(C#N)C1c1ccncc1 (stereo not given) | inconclusive: -8.8% | – |
| CCC(C)Sc1ccc(-c2nc3ccc(C)cn3c2NCc2ccccc2)cc1OC (stereo not given) | inconclusive: -1.19% | – |
| Cc1ccc(/C=C2\SC(N3CCCCC3)=NC2=O)cc1 | inconclusive: 0.614% | – |
| CC(=O)c1cccc(NC(=O)C2CC(c3ccc(F)cc3)=NO2)c1 (stereo not given) | – | inconclusive: 29.1 µM [falling, partial curve, poor fit] |
| O=C1C2C3C=CC(CC3)C2C(=O)N1c1ccccc1[N+](=O)[O-] (stereo not given) | inconclusive: -29% | – |
| O=C(N[C@@H](Cc1ccccc1)C(=O)OCc1ccccc1)c1nc[nH]c1C(=O)NCc1ccccc1 | inconclusive: 2.09% | – |
| CCOC(=O)c1ccc(-n2c(C)ccc2C)cc1 | inactive: -2.14% | – |
| Cc1c(C(=O)NCCSCc2ccc(F)cc2)cnn1-c1ccc(Cl)cc1 | – | inconclusive: 8.91 µM [rising, partial curve] |
| OC(COCc1ccc(Cl)cc1)CN1CCN(CC(O)COCc2ccc(Cl)cc2)CC1 (stereo not given) | inconclusive: -25.1% | – |
| COc1ccc(-c2nn(-c3ccccc3)cc2C(=O)n2nnc3ccccc32)cc1 | inactive: 7.94% | – |
| O=C(COc1ccccc1)NCC(=O)Nc1cccc2ccccc12 | – | inconclusive: 13 µM [falling, partial curve] |
| N#Cc1c(-c2cccnc2)cc(-c2ccccc2)nc1N | inconclusive: -7.04% | – |

3 structures out of the list, ordered by molar mass, rising:

| Compound | activity change, negative = inhibition | Potency |
| --- | --- | --- |
| CCNC(=S)N=Nc1c(O)[nH]c2ccc(C(C)C)cc12 | inconclusive: -0.259% | – |
| COc1ccccc1C(=O)OCC(=O)c1cccc([N+](=O)[O-])c1 | inconclusive: 9.34% | – |
| COc1ccccc1NC(C)=[N+](C)CCNS(=O)(=O)c1ccc(Cl)cc1 | – | inconclusive: 28.2 µM [falling, single point] |

The results go on.

| Compound | activity change, negative = inhibition | Potency |
| --- | --- | --- |
| O=C(NCc1n[nH]c(=S)n1Cc1ccccc1)c1ccccc1 | inactive: 0.973% | – |
| CCCn1c(NCc2cccc(OC)c2O)nc2ccccc21 | inconclusive: -9.91% | – |
| Nc1cc(C(=O)OCC(=O)NCc2ccco2)ccc1Cl | inconclusive: -4.83% | – |
| CC(=O)c1ccc(S(=O)(=O)NCC(=O)Nc2nc3ccccc3[nH]2)cc1 | inconclusive: -12.4% | – |
| Cc1ccnc(NC(=O)c2cc3c(=O)oc4ccc(C)cc4c3s2)c1 | inconclusive: -0.643% | – |
| COc1cccc(N2CCN(S(=O)(=O)c3cccc4cccnc34)CC2)c1 | inconclusive: 4.27% | – |
| CCOC(=O)c1ccccc1NC(=O)C1CSC2(C)CCC(=O)N12 (stereo not given) | inactive: 6.98% | – |
| Cc1ccc(N(C)C(=O)c2cc(S(=O)(=O)N3CCc4ccccc43)cn2C)cc1 | inconclusive: -16.8% | – |
| CCN(CC)c1ccc(CNc2ccc3c(c2)ncn3CC)cc1 | inconclusive: 4.62% | – |
| COCCNc1ncnc2c1[nH]c1ccccc12 | inconclusive: 15.2% | – |
| O=C(OCc1cccc([N+](=O)[O-])c1)c1cc(=O)[nH]c2ccccc12 | inconclusive: 7.36% | – |
| CCN(CC)C(=O)CN1C(=O)/C(=C/c2ccccc2)SC1=S | inconclusive: 11.6% | – |
| O=C(Nc1ccc(Cl)cn1)c1ccc(-c2cc(Cl)ccc2Cl)o1 | inconclusive: 14% | – |
| Cc1ccccc1OCCCCc1c(C)n[nH]c1C | inconclusive: -1.88% | – |
| CN(CCOc1ccccc1)C(=S)Nc1ccc(OC(F)F)cc1 | inactive: -14.7% | – |
| Cc1ccc(C(=O)COC(=O)CN2C(=O)C3C4CCC(C4)C3C2=O)cc1[N+](=O)[O-] (stereo not given) | inactive: 0.0064% | – |
| COc1ccccc1OCC(=O)NNC(=O)c1cnccn1 | inactive: 0.652% | – |
| CCOc1cccc(-c2c(C(=O)N/N=C/c3sccc3C)nnn2-c2nonc2N)c1 | inconclusive: 10.3% | – |
| COc1ccc(-c2c(C)nn(-c3ccccc3)c2N)cc1OC | inconclusive: -70.6% | – |
| C(=N\Nc1nc2ccccc2[nH]1)/c1ccncc1 | – | inconclusive: 12.6 µM [falling, partial curve, poor fit] |
| N#CCc1ccc(Oc2ncc(C(F)(F)F)cc2Cl)cc1 | inconclusive: 4.31% | – |
| CCOc1ccccc1CNC(=O)c1ccc2nc(N3CCOCC3)sc2c1 | – | inconclusive: 22.4 µM [falling, single point] |
| COc1ccccc1NC(=O)COc1ccc(C(=O)NC2CCCc3ccccc32)cc1OC (stereo not given) | – | inconclusive: 35.5 µM [falling, single point] |
| Cc1c(C(=O)C(=O)N2c3ccc(F)cc3CCC2C)c2ccccc2n1C (stereo not given) | inconclusive: 0.714% | – |
| CC(C)C(=O)Nc1nnc(CSCc2ccccc2F)s1 | – | inconclusive: 6.51 µM [rising, partial curve, poor fit] |
| Cc1ccccc1NC(=O)Cc1nc(COC(=O)c2ccc(O)cc2O)cs1 | – | inconclusive: 11.2 µM [falling, partial curve, poor fit] |
